{"source": "patent US20230393122A1", "about": "(priority 2022, published 2023)", "assay_type_in_all_cases": "cell-based", "key": {"[1]": {"test_system": "SARS-CoV-2 Omicron variant", "assay": "Viral load reduction assay in EPSC-derived eSTB cells (qRT-PCR of supernatant viral copies)"}, "[2]": {"test_system": "SARS-CoV-2 Delta variant", "assay": "Viral load reduction assay in naïve-eSTB cells", "details": "compared with EPSC-eSTBs"}, "[3]": {"test_system": "SARS-CoV-2 Omicron variant", "assay": "Viral load reduction assay in naïve-eSTB cells", "details": "compared with EPSC-eSTBs"}, "[4]": {"test_system": "SARS-CoV-2 Delta variant", "assay": "Viral load reduction assay in EPSC-derived eSTB cells (qRT-PCR of supernatant viral copies)"}}, "note": "At least one compound was matched to its structure with a doubt left.", "data": [{"smiles": "CCC(CC)COC(=O)[C@H](C)N[P@](=O)(OC[C@H]1O[C@@](C#N)(c2ccc3c(N)ncnn23)[C@H](O)[C@@H]1O)Oc1ccccc1", "note": "[remdesivir]", "values": [{"measurement": "Viral copy in the supernatant, Omicron (FIG. 17B)", "setting": "[1]", "value": "dose-dependent inhibition"}, {"measurement": "IC50 against Delta variant in naïve-eSTBs", "setting": "[2]", "value": "similarly low"}, {"measurement": "IC50 against Omicron variant in naïve-eSTBs", "setting": "[3]", "value": "similarly low"}, {"measurement": "Viral copy in the supernatant, Delta (FIG. 17B)", "setting": "[4]", "value": "dose-dependent inhibition"}]}]}
